PubChem BioAssay AID1224828 – NIAID | 2016
The deposit covers about 17,000 reagents; this is a random part of them. 762 of all reagents (4.5%) count as active. 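Active calls include both raised and lowered p65 entry, mostly lowered; wells with fewer than 50 cells lack a z-score.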 Raw values vary from plate to plate and are shown uncorrected.

Test: 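Find genes required for NF-kappaB p65 moving into the nucleus after LPS in mouse macrophages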 (primary screen)
Cells: mouse RAW264.7 G9 macrophage reporter cells (GFP-p65, Tnf promoter-mCherry)
Reagents: siRNA pool against mouse genes, 100 nM
Duration: 2 days siRNA transfection, then 40 min LPS before fixation
Treatment: LPS (Salmonella minnesota R595) at 10 ng/ml
Measured: 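Imaged p65 nuclear translocation ratio, normalised to the plate median, converted to robust z-scores and averaged across two replicates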
Direction: p65 translocation robust z-score: higher = more nuclear NF-kappaB p65 after LPS than the plate median; nuclear/cytoplasmic p65 ratio: higher = more nuclear NF-kappaB p65
Call rule: 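Active if robust z is above 3.3 (negative regulators) or below -1.56, the Tlr4 control median (positive regulators); activity score 50 or more; control wells not called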
Meaning of the calls: active = hit (p65 shift raised or lowered); inactive = no clear change

Rnf214 scored p65 translocation robust z-score -0.59; nuclear/cytoplasmic p65 ratio, rep 1 = 1.52; nuclear/cytoplasmic p65 ratio, rep 2 = 1.65; low cell count flag enough cells to score; inactive.
Depletion of Rap1a came out at: p65 translocation robust z-score -0.53; nuclear/cytoplasmic p65 ratio, rep 1 = 1.43; nuclear/cytoplasmic p65 ratio, rep 2 = 1.45; low cell count flag enough cells to score; inactive.
Knock-down of Nlrp3 resulted in: p65 translocation robust z-score -1.29; nuclear/cytoplasmic p65 ratio, rep 1 = 1.32; nuclear/cytoplasmic p65 ratio, rep 2 = 1.19; low cell count flag enough cells to score; inactive.
Knock-down of Or8g24 came out at: p65 translocation robust z-score 1.27; nuclear/cytoplasmic p65 ratio, rep 1 = 1.7; nuclear/cytoplasmic p65 ratio, rep 2 = 1.31; low cell count flag enough cells to score; inactive.
Against Vmn1r27, the values are p65 translocation robust z-score -0.31; nuclear/cytoplasmic p65 ratio, rep 1 = 1.4; nuclear/cytoplasmic p65 ratio, rep 2 = 1.15; low cell count flag enough cells to score; inactive.
Against Slc39a3 the deposit lists p65 translocation robust z-score -0.26; nuclear/cytoplasmic p65 ratio, rep 1 = 1.04; nuclear/cytoplasmic p65 ratio, rep 2 = 1.23; low cell count flag enough cells to score; inactive.
Fndc4 gave p65 translocation robust z-score 2.18; nuclear/cytoplasmic p65 ratio, rep 1 = 1.88; nuclear/cytoplasmic p65 ratio, rep 2 = 1.79; low cell count flag enough cells to score; inactive.
Tbrg1 showed nuclear/cytoplasmic p65 ratio, rep 1 = 1.4; nuclear/cytoplasmic p65 ratio, rep 2 = 1.11; low cell count flag fewer than 50 cells per well; well left out of scoring; inactive.
Against Slc22a8 the deposit lists p65 translocation robust z-score 0.81; nuclear/cytoplasmic p65 ratio, rep 1 = 1.56; nuclear/cytoplasmic p65 ratio, rep 2 = 1.31; low cell count flag enough cells to score; inactive.
Depletion of Defb20 gave: p65 translocation robust z-score 0.39; nuclear/cytoplasmic p65 ratio, rep 1 = 1.52; nuclear/cytoplasmic p65 ratio, rep 2 = 1.56; low cell count flag enough cells to score; inactive.
Scaf11 showed p65 translocation robust z-score -0.22; nuclear/cytoplasmic p65 ratio, rep 1 = 1.54; nuclear/cytoplasmic p65 ratio, rep 2 = 1.62; low cell count flag enough cells to score; inactive.
Dpp3 showed p65 translocation robust z-score -0.84; nuclear/cytoplasmic p65 ratio, rep 1 = 1.32; nuclear/cytoplasmic p65 ratio, rep 2 = 1.31; low cell count flag enough cells to score; inactive.
Neurog2 showed p65 translocation robust z-score -0.47; nuclear/cytoplasmic p65 ratio, rep 1 = 1.72; nuclear/cytoplasmic p65 ratio, rep 2 = 1.51; low cell count flag enough cells to score; inactive.
Mis12 scored nuclear/cytoplasmic p65 ratio, rep 1 = 1.23; nuclear/cytoplasmic p65 ratio, rep 2 = 1.4; low cell count flag fewer than 50 cells per well; well left out of scoring; inactive.
Depletion of Cdk5rap1 came out at: p65 translocation robust z-score 2; nuclear/cytoplasmic p65 ratio, rep 1 = 2.02; nuclear/cytoplasmic p65 ratio, rep 2 = 1.62; low cell count flag enough cells to score; inactive.
Against Or12e9 the deposit lists p65 translocation robust z-score -2.59; nuclear/cytoplasmic p65 ratio, rep 1 = 1.26; nuclear/cytoplasmic p65 ratio, rep 2 = 1.2; low cell count flag enough cells to score; active.
Against Tgm1, the values are p65 translocation robust z-score -0.23; nuclear/cytoplasmic p65 ratio, rep 1 = 1.46; nuclear/cytoplasmic p65 ratio, rep 2 = 1.51; low cell count flag enough cells to score; inactive.
With knock-down of Or2z2 the results were nuclear/cytoplasmic p65 ratio, rep 1 = 1.89; nuclear/cytoplasmic p65 ratio, rep 2 = 1.37; low cell count flag fewer than 50 cells per well; well left out of scoring; inactive.
For Atp8b3, the entry reads p65 translocation robust z-score -0.71; nuclear/cytoplasmic p65 ratio, rep 1 = 1.43; nuclear/cytoplasmic p65 ratio, rep 2 = 1.48; low cell count flag enough cells to score; inactive.
With knock-down of AI987944, the record shows p65 translocation robust z-score -1.46; nuclear/cytoplasmic p65 ratio, rep 1 = 1.37; nuclear/cytoplasmic p65 ratio, rep 2 = 1.57; low cell count flag enough cells to score; inactive.
Silencing of Tmem35a gave: p65 translocation robust z-score 0.32; nuclear/cytoplasmic p65 ratio, rep 1 = 1.46; nuclear/cytoplasmic p65 ratio, rep 2 = 1.61; low cell count flag enough cells to score; inactive.
Against Tspan1 the deposit lists nuclear/cytoplasmic p65 ratio, rep 1 = 1.48; nuclear/cytoplasmic p65 ratio, rep 2 = 1.42; low cell count flag fewer than 50 cells per well; well left out of scoring; inactive.
For B4galnt3, the values are p65 translocation robust z-score -0.2; nuclear/cytoplasmic p65 ratio, rep 1 = 1.55; nuclear/cytoplasmic p65 ratio, rep 2 = 1.68; low cell count flag enough cells to score; inactive.
Mertk gave p65 translocation robust z-score 0.35; nuclear/cytoplasmic p65 ratio, rep 1 = 1.66; nuclear/cytoplasmic p65 ratio, rep 2 = 1.48; low cell count flag enough cells to score; inactive.
For Vmn1r10, the values are p65 translocation robust z-score 0.29; nuclear/cytoplasmic p65 ratio, rep 1 = 1.38; nuclear/cytoplasmic p65 ratio, rep 2 = 1.3; low cell count flag enough cells to score; inactive.
For Ier5l, the values are p65 translocation robust z-score -0.05; nuclear/cytoplasmic p65 ratio, rep 1 = 1.43; nuclear/cytoplasmic p65 ratio, rep 2 = 1.42; low cell count flag enough cells to score; inactive.
Against Map4k3, the values are p65 translocation robust z-score 1.72; nuclear/cytoplasmic p65 ratio, rep 1 = 1.96; nuclear/cytoplasmic p65 ratio, rep 2 = 1.48; low cell count flag enough cells to score; inactive.

In a second layout: entries from further up
gene knocked down	p65 translocation robust z-score	nuclear/cytoplasmic p65 ratio, rep 1	nuclear/cytoplasmic p65 ratio, rep 2	low cell count flag	call
Dpp3	-0.84	1.32	1.31	enough cells to score	inactive
Neurog2	-0.47	1.72	1.51	enough cells to score	inactive
Mis12		1.23	1.4	fewer than 50 cells per well; well left out of scoring	inactive
Cdk5rap1	2	2.02	1.62	enough cells to score	inactive
